This note sets out measurements from PubChem BioAssay AID2685 (National Center for Advancing Translational Sciences (NCATS), 2010).

Molecules are shown by their SMILES. The list shows a part of the results. These are further read-outs of the screen, such as a control signal, another cell line or another target. No call is given for them. Compounds called inactive in the main read-out are mostly missing here. Words in brackets tell the shape of the fitted curve; partial curves, single points and poor fits give uncertain potencies.

A short description of the test: qHTS Assay for Lipid Storage Modulators in Drosophila S3 Cells.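 As to cell number change: cells counted by Cell Tracker Red CMTPX staining in the red channel.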 Particulars: BODIPY lipid droplet fluorescence, 18-24 h; for cell number change: measured here: cell count max response, cells fed with added oleic acid. In a few lines: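 Drosophila S3 cells loaded with oleic acid (400 uM, as added) and compounds at several concentrations; lipid droplets imaged by 488-nm laser-scanning cytometry, 500–530 nm intensity and object ratio to cell channel. Percent activity normalized to 20 uM Triacsin C.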
In general terms: Quantitative high-throughput screening tests each substance at several concentrations.

Setting [1] is: measured here: cell number channel AC50, cells fed with added oleic acid.
Setting [2] is: measured here: lipid fluorescence (Fed channel) AC50, cells fed with added oleic acid.

`CCOC(=O)CSc1nc(N)nc(C)c1Br`: the cell number change was 0.23%.

What is called AC50 is the concentration at which the activity in the assay is half-maximal. Take `Cc1[nH]c(=O)[nH]c(=O)c1S(=O)(=O)N1CCCC(C(=O)NCc2ccco2)C1` (stereo unspecified): the cell number change is -48.4%. Besides, under setting [1], the AC50 was 3.26 µM [falling, full curve, poor fit]. Moreover, the AC50 under setting [2] was 5.17 µM [falling, full curve].

`O=C(O)CCN1C(=O)C2C3c4ccccc4C(c4ccccc43)C2C1=O` (stereo unspecified): the cell number change is 8.15%.

For `O=C(O)c1ccccc1NS(=O)(=O)c1cccc(-n2sc3ccccc3c2=O)c1`, the cell number change was 12.6%.

As for `Cc1[nH]n(-c2ccccc2)c(=O)c1C1(C(F)(F)F)C(=O)N(c2ccccc2)C2=C1C(=O)CC(C)(C)C2` (stereo unspecified), the cell number change was -62.5%. Also, the AC50 under setting [1] is 3.26 µM [falling, partial curve, poor fit].

As to `N#C/C(=C/c1ccc(N2CCCCC2)o1)c1cccc(F)c1`, the cell number change is 10.1%.

For the molecule `O=c1nc2ccccc2c(NS(=O)(=O)c2ccccc2)n1-c1ccccc1`, the cell number change was -9.48%.

On to `Cc1ccc(C(=O)N/N=C\c2cc3c(cc2Br)OCO3)cn1`, for which the cell number change was -31.7%. Also, under setting [1], the AC50 was 9.2 µM [falling, partial curve].

As for `O=C(c1ccco1)N(Cc1cccc(F)c1)C1CCS(=O)(=O)C1` (stereo unspecified), the cell number change is 0.597%.

With `O=C(COc1ccc([N+](=O)[O-])cc1)NNC(=O)Nc1ccc([N+](=O)[O-])cc1`, the cell number change was found to be 1.62%. Besides, under setting [2], the concentration at half-maximal activity (AC50) is 0.398 µM [rising, partial curve, poor fit].

Consider `COc1cc(CC(=O)Nc2nccs2)cc(OC)c1OC`, for which the cell number change was -20.7%.

On to `Cc1ccc(NC(=O)c2cnc(SCC(=O)NCC3CCCO3)n(C)c2=O)cc1C` (stereo unspecified), for which the cell number change is -37.9%. Further, the AC50 under setting [1] was 29.1 µM [falling, single point]. The AC50 under setting [2] was 25.9 µM [falling, single point].

Consider `COc1cc(C(=O)Nc2ccc(NC(=O)c3ccccc3Cl)nc2)cc(OC)c1OC`, for which the cell number change is -1.32%. Moreover, under setting [1], the AC50 is 0.206 µM [rising, full curve, poor fit].

For `CC1CC(C)CN(CCCNC(=O)c2ccc(CNS(=O)(=O)c3ccc(F)cc3)cc2)C1` (stereo unspecified), the cell number change came to 0.295%. For the same molecule, the concentration at half-maximal activity (AC50) under setting [2] was 29.1 µM [rising, single point].

For `C=CCSC1=C(C#N)C2(CCCCC2)C(C#N)C(=O)N1` (stereo unspecified), the cell number change came out at 17.8%. Also, the AC50 under setting [2] was 0.517 µM [rising, partial curve].

With `CCOc1cc(N2CCOCC2)c(OCC)cc1NC(=O)C(NC(=O)c1ccco1)C(C)C` (stereo unspecified), the cell number change was found to be 63.9%. Further, the AC50 under setting [1] was 32.6 µM [rising, single point]. Besides, the concentration at half-maximal activity (AC50) under setting [2] is 18.4 µM [rising, partial curve].

With `COc1ccc(N2C(=O)C3CCCN3C2c2ccccc2)cc1` (stereo unspecified), the cell number change is 7.55%.

For `COC1CCCCC1NS(=O)(=O)c1ccc(Cl)cc1` (stereo unspecified), the cell number change was determined as 16%. Further, the AC50 under setting [2] is 0.013 µM [falling, full curve, poor fit].

Take `CC(C)C(C(=O)NC1CCCC1)N(CC1CCCO1)C(=O)CNS(=O)(=O)c1ccccc1` (stereo unspecified): the cell number change is -21.9%. The AC50 under setting [1] was 0.164 µM [falling, full curve, poor fit].

With `CCc1ccc(/C=C2/SC(=S)N(CCC(=O)Nc3cccnc3)C2=O)cc1`, the cell number change was 16%.

Take `Clc1cccc(Cl)c1CNc1ccc(N2CCCC2)cc1`: the cell number change was 7.12%.

On to `CC12CCC(C(=O)N(Cc3ccccc3)Cc3ccccc3)(OC1=O)C2(C)C` (stereo unspecified), for which the cell number change came out at 50.9%. Moreover, the AC50 under setting [1] is 29.1 µM [rising, single point]. Besides, under setting [2], the concentration at half-maximal activity (AC50) was 0.517 µM [falling, single point].

For the molecule `Nc1ccc2nc(SCC(=O)c3ccccc3)sc2c1`, the AC50 under setting [2] is 4.11 µM [rising, full curve].

In the case of `CCc1ccc(C2=Nn3c(nnc3-c3cccs3)SC2)cc1`, the cell number change stood at 12%.

Consider `COc1cccc(NC(=O)COC(=O)CCCc2c[nH]c3ccccc23)c1`, for which the cell number change was determined as 39.4%. Further, the AC50 under setting [1] is 29.1 µM [rising, single point].

Regarding `CC(=O)Nc1ccccc1OCc1nnc(-c2cccs2)o1`, the AC50 under setting [1] is 0.731 µM [rising, full curve, poor fit].

Take `CNC1=C(N(C(C)=O)c2ccc(Br)cc2)C(=O)c2ccccc2C1=O`: the cell number change is -42.9%. For the same molecule, the AC50 under setting [1] is 11.6 µM [falling, partial curve, poor fit]. The AC50 under setting [2] is 8.2 µM [falling, partial curve, poor fit].

Take `Cc1ccc(S(=O)(=O)NCC(=O)N2CCN(c3ccc(F)cc3)CC2)cc1`: the cell number change was 33%. In addition, the AC50 under setting [1] is 13 µM [rising, partial curve, poor fit]. For the same molecule, the half-maximal activity concentration (AC50) under setting [2] was 29.1 µM [rising, single point].

Turning to `Cc1cnc(C(=O)NC2CC(C)(C)Cc3c2cnn3-c2cccc(F)c2)cn1` (stereo unspecified), the cell number change was -29.1%. Further, the AC50 under setting [2] is 3.66 µM [falling, partial curve].

Consider `O=C(NCCC1=CCCCC1)C1CCN(c2nnc(-n3cccc3)s2)CC1`, for which the cell number change is -89%. For the same molecule, the AC50 under setting [1] was 11.6 µM [falling, partial curve]. The AC50 under setting [2] is 16.4 µM [falling, partial curve].

Consider `Cc1ccc(N=C2SCCCN2C(=O)C2=COCCO2)cc1Cl`, for which the cell number change came to 3.12%. Under setting [1], the AC50 is 2.31 µM [falling, single point]. For the same molecule, the AC50 under setting [2] is 1.64 µM [falling, partial curve].

Take `CC1(NC(=O)c2ccccc2)CCN(CCc2cccs2)C1=O` (stereo unspecified): the cell number change was -3.84%.

With `CCN(CC)C(=S)SCC(=O)Nc1nc(=O)c2ccccc2s1`, the cell number change is -1.08%. Besides, the AC50 under setting [2] was 3.26 µM [rising, partial curve, poor fit].

As to `O=C(c1ccccc1)c1ccc(-n2cnnc2)c([N+](=O)[O-])c1`, the cell number change was found to be 9.27%. In addition, under setting [2], the AC50 is 0.0058 µM [falling, full curve, poor fit].

Consider `COc1ccc(NC(=O)NNC(=O)c2cc(C3CC3)nc3ccccc23)c(OC)c1`, for which the cell number change was -25.2%. Besides, the AC50 under setting [2] was 29.1 µM [rising, partial curve, poor fit].

`O=C(O)c1ccc(CN2C(=O)c3ccc(Oc4ccc([N+](=O)[O-])cc4)cc3C2=O)cc1`: the cell number change is -11.9%. For the same molecule, under setting [2], the AC50 is 16.4 µM [falling, partial curve, poor fit].

On to `COc1cc(CN(C)Cc2cc(=O)oc3cc(C)c(Cl)cc23)ccc1OC(F)F`, for which the cell number change is 24.4%. For the same molecule, the AC50 under setting [2] was 7.31 µM [falling, single point].

Consider `Cc1ccc2cc(CN(C(=O)c3cccs3)c3ccccc3)c(=O)[nH]c2c1`, for which the cell number change stood at 2.22%.

Consider `COCCNc1nc(-c2ccccc2)nc2c1oc1ccccc12`, for which the cell number change stood at 56.2%. Also, the AC50 under setting [1] was 0.82 µM [rising, full curve]. The concentration at half-maximal activity (AC50) under setting [2] is 14.6 µM [rising, partial curve].

For `COc1cccc(NC(=S)NCCN2CCOCC2)c1`, the cell number change is -8.06%. For the same molecule, the AC50 under setting [2] was 0.231 µM [falling, full curve, poor fit].

Take `CC(=O)c1cnc2nc(C)nn2c1C`: the cell number change was found to be 2.79%. Besides, under setting [2], the AC50 is 0.0058 µM [rising, full curve].

As for `CCOC(=O)c1cnc2cc(C)ccn2c1=O`, the cell number change was found to be 4.34%. In addition, the AC50 under setting [2] was 6.51 µM [rising, partial curve, poor fit].

For `Cc1ccc(NC(=O)Nn2cnnc2)cc1`, under setting [2], the concentration at half-maximal activity (AC50) is 0.58 µM [rising, single point].

With `Cc1cnn(CCC(=O)NNC(=S)NCC(C)C)c1`, the cell number change is 1.57%.

For the molecule `CCn1c(C)c2c([n+]1CC)CC(C)(C)CC2=O`, the cell number change was found to be 0.95%. For the same molecule, the AC50 under setting [2] was 18.4 µM [falling, single point].

Regarding `COc1ccc(N(CC(=O)NC(C)c2ccccc2)S(=O)(=O)c2ccc(C)cc2)cc1` (stereo unspecified), the cell number change was -5.26%. The AC50 under setting [2] is 35.5 µM [falling, single point].

`CC(C)CCNC(=O)CNC(=O)c1cccs1`: the cell number change was -6.37%.

For `COc1cccc(-c2nn(C)c3sc(C(=O)N4CCN(c5ccccc5)CC4)cc23)c1`, the cell number change was -16%. Besides, the half-maximal activity concentration (AC50) under setting [2] was 0.517 µM [rising, full curve].

Regarding `CCc1nc2ccc(C(=O)Nc3ccc(NC(C)=O)cc3)cc2nc1CC`, the cell number change stood at 5.03%. Under setting [2], the AC50 was 0.13 µM [rising, full curve, poor fit].

As for `CCOC(=O)Cc1csc(NC(=O)CSc2nnc(-n3nc(C)cc3C)c3ccccc23)n1`, under setting [1], the AC50 was 0.146 µM [falling, single point].

Regarding `CCOc1ccc(NC(=O)CCc2c(C)nn(-c3ccc(N4CCCCC4)nn3)c2C)cc1`, the cell number change is -30.4%. In addition, the AC50 under setting [1] is 0.326 µM [falling, full curve, poor fit].

Turning to `Nc1cc(N)nc(SCc2cc(=O)oc3cc4c(cc23)CCC4)n1`, the cell number change came out at 19.5%. For the same molecule, the AC50 under setting [2] was 2.06 µM [rising, partial curve].

On to `Cc1c(C=O)c(Cl)n(C)c(=O)c1C#N`, for which the cell number change is -91.5%.

Consider `COc1cc(C(=O)NCC2CCCO2)ccc1OCc1ccccc1` (stereo unspecified), for which the cell number change is 23.1%.

`CCN(CC(=O)Nc1ccc(NC(C)=O)cc1)C(=O)CCCc1c[nH]c2ccccc12`: the cell number change is -65.7%. Under setting [1], the AC50 is 10.3 µM [falling, partial curve]. Under setting [2], the concentration at half-maximal activity (AC50) was 0.103 µM [falling, full curve, poor fit].

`CC1(C)CC(=O)c2ccc(O)cc2O1`: the cell number change is -51%. In addition, the AC50 under setting [1] is 0.116 µM [falling, full curve, poor fit]. Besides, the AC50 under setting [2] is 16.4 µM [falling, single point].

As for `COC(=O)c1ccccc1NC(=O)Cn1c(SC)c(F)cnc1=O`, the cell number change was -15.2%. In addition, under setting [2], the AC50 was 6.51 µM [falling, single point].

Regarding `COc1cccc(NC(=O)COc2ccc(C(=S)N3CCN(C)CC3)cc2OC)c1`, under setting [2], the AC50 was 7.31 µM [falling, partial curve].

Consider `Cc1c(NC(=O)CN2CCCc3ccccc32)c(=O)n(-c2ccccc2)n1C`, for which the cell number change was -20.9%. For the same molecule, the AC50 under setting [2] was 13 µM [rising, partial curve].

`CCO/C=N/Nc1nc(C(F)(F)F)nc2c1cnn2Cc1ccccc1`: the cell number change was -39.3%. In addition, the AC50 under setting [1] was 18.4 µM [falling, single point]. The AC50 under setting [2] was 29.1 µM [falling, single point].

Turning to `O=C(NCCN1CCOCC1)Nc1ccccc1`, the cell number change is -23.2%. Under setting [2], the AC50 is 18.4 µM [falling, single point].

Consider `Cc1ccsc1/C=N/n1c(-c2ccccc2)n[nH]c1=S`, for which the cell number change is -66.7%. Moreover, the half-maximal activity concentration (AC50) under setting [1] is 0.651 µM [falling, full curve, poor fit].

For the molecule `COc1ccc2nc(N3CCCC3)c(C#N)cc2c1`, the half-maximal activity concentration (AC50) by setting is: under setting [1], 6.51 µM [rising, single point]; under setting [2], 2.31 µM [rising, partial curve].
